# From PubChem BioAssay AID743255 (National Center for Advancing Translational Sciences (NCATS), 2014)
# Sequences of proteins named here, by UniProt entry; tags and fusion partners are left off. A change or cut given only in a name is not applied to a line headed by its entry.
# UniProt O94782: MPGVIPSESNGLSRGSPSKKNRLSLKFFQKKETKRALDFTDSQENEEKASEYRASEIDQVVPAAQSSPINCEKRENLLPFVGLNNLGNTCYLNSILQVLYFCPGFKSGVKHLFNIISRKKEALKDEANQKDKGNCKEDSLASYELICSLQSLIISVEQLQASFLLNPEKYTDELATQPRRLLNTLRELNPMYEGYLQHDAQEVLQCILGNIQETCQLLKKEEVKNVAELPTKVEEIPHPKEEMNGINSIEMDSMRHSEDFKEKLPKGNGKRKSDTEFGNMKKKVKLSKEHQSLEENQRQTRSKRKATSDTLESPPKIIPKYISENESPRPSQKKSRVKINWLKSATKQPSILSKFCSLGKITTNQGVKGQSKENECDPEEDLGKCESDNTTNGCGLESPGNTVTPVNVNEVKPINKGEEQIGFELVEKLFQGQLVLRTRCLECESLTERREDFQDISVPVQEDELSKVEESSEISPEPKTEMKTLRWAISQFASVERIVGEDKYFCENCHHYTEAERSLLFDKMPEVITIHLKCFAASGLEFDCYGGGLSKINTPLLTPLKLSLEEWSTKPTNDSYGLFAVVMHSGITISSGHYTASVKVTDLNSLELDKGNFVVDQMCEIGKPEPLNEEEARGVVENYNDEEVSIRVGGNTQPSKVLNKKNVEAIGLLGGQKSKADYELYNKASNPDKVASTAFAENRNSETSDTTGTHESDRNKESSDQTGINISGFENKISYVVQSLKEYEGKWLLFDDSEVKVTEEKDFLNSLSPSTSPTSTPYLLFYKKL
# “And” between values parts separate entries of the source, which are not always exact repeats. Equal entries are not always repeated. Hit rate of the full screen: of about 390,000 compounds, about 910 (0.23%) were called active. Inconclusive means that the source gave no clear call. Such entries were picked first, then a sample of the others. The call rests on the fitted dose curve; in most records, active means well fitted inhibition curve with a large enough effect; inconclusive means small, poorly fitted or top-dose-only effect; inactive means no such curve, though single readings can be large or run the other way. Potencies beside an inconclusive call are fits to weak or partial responses and may not hold up.
# Target: Ubiquitin carboxyl-terminal hydrolase 1 (Homo sapiens) (UniProt O94782)
# Assay: Inhibitors of USP1/UAF1: Primary Screen; further: nearly all actives have a fitted effect of over 60% in size
# Details: recombinant USP1/UAF1, Ub-Rhodamine cleavage fluorescence; activity change, negative = inhibition: at 57.1 µM (top of the series)
# Summary of the method: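 1 nM enzyme complex + cpd, 15 min RT; start with Ub-Rho 150nM final; kinetic fluorescence ex 480/em 540, 6 reads q60 s. Buffer 50mM HEPES pH 7.8, 0.5mM EDTA, 0.1 mg/ml BSA, 1mM TCEP, 0.01% Tween-20.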
# On the % scale 0 is the no-effect control and ±100 the full control effect; potency means the concentration at half of the fitted maximal effect.
SMILES,"activity change, negative = inhibition",Potency
CC(=O)Oc1cc2c(C(=O)NCCCN3CCOCC3)c(C)oc2c2ccccc12,inactive: -19%,–
CN1C(=O)C(C)(C)c2cc(S(=O)(=O)NCc3ccc(Cl)cc3)ccc21,–,"inconclusive: 0.631 µM [inhibitor, full curve, poor fit]"
COc1cc(-c2nnc(SCC(=O)Oc3ccccc3)o2)cc(OC)c1OC,–,"inconclusive: 44.7 µM [inhibitor, partial curve, poor fit]"
COc1ccc(NC(=O)c2ccc3c(=O)n(CC4CCCO4)c(=S)[nH]c3c2)c(OC)c1 (stereo not given),–,"inconclusive: 10 µM [inhibitor, single point]"
COc1ccccc1OCC(=O)NNC(=O)Nc1ccc(Cl)cc1,–,"inconclusive: 20 µM [inhibitor, partial curve]"
Cc1ccc(CNc2ccc(O)cc2)cc1,–,"inconclusive: 31.6 µM [inhibitor, partial curve, poor fit]"
Cc1ccc(Nc2nc3ccccc3c3nnc(C)n23)cc1Cl,–,"inconclusive: 0.0708 µM [inhibitor, full curve, poor fit]"
COCCNC(=O)C1CCC(CNS(=O)(=O)c2c(C)cc(C)cc2C)CC1 (stereo not given),inactive: -8.73%,–
Cc1cc(C)c2c(=O)cc(CSc3nnc(-c4ccccc4)n3C)[nH]c2c1,inactive: -1.76%,–
CC(C)(C)c1ccc(-c2nc3n(c(=O)c2C#N)CCS3)cc1,–,"inconclusive: 39.8 µM [inhibitor, partial curve, poor fit]"
Cc1nc2c(sc3nc(N4CCOCC4)c4c(c32)CC(C)(C)OC4)c(-c2ccc(Cl)cc2)c1C(=O)O,–,"inconclusive: 44.7 µM [inhibitor, partial curve]"
CCOC(=O)c1cnc2cc(-c3ccc(C)cc3)nn2c1C,–,"inconclusive: 0.251 µM [inhibitor, full curve, poor fit]"
CC(C)(C)c1cc(C(C)(C)C)c2oc(=O)c(-c3nc4ccc(C(=O)O)cc4[nH]3)cc2c1,–,"inconclusive: 14.1 µM [inhibitor, partial curve, poor fit]"
C[C@@H]1CN([C@H](C)CO)C(=O)c2cc(Br)cnc2O[C@@H]1CN(C)Cc1ccc(-c2ccccc2)cc1,inconclusive: -36.1% [inhibitor],–
C=CCNC(=O)N[C@@H](Cc1ccccc1)C(=O)OC,–,"inconclusive: 6.31 µM [inhibitor, single point]"
O=C(NCCCc1ccncc1)C1CCC(=O)N(Cc2cccc(F)c2)C1 (stereo not given),inactive: -20.3%,–
COc1ccc(Cl)cc1NC(=O)c1ncn(-c2ccccc2)n1,–,"inconclusive: 6.31 µM [inhibitor, single point]"
COC(=O)C1=C(C)NC(C)=C(C(=O)OC)C1C(=O)OCC(=O)N1c2ccccc2CC1C (stereo not given),–,"inconclusive: 8.91 µM [inhibitor, partial curve, poor fit]"
CCc1ccccc1Nc1ncnc2c1cnn2-c1ccc(Cl)cc1,inactive: -26.6%,–
CSCCC(NS(=O)(=O)c1cccs1)C(=O)Nc1ccc(C)c(Cl)c1 (stereo not given),inactive: -21.7%,–
Fc1cccc(Nc2ncnc3sccc23)c1,inactive: -24.1%,–
CCc1ccc(-c2cc(C)no2)cc1S(=O)(=O)Nc1ccc(C)cn1,–,"inconclusive: 31.6 µM [inhibitor, partial curve]"

# Structural class, the entries above containing sulfur.
SMILES,"activity change, negative = inhibition",Potency
CN1C(=O)C(C)(C)c2cc(S(=O)(=O)NCc3ccc(Cl)cc3)ccc21,–,"inconclusive: 0.631 µM [inhibitor, full curve, poor fit]"
COc1cc(-c2nnc(SCC(=O)Oc3ccccc3)o2)cc(OC)c1OC,–,"inconclusive: 44.7 µM [inhibitor, partial curve, poor fit]"
COc1ccc(NC(=O)c2ccc3c(=O)n(CC4CCCO4)c(=S)[nH]c3c2)c(OC)c1 (stereo not given),–,"inconclusive: 10 µM [inhibitor, single point]"
COCCNC(=O)C1CCC(CNS(=O)(=O)c2c(C)cc(C)cc2C)CC1 (stereo not given),inactive: -8.73%,–
Cc1cc(C)c2c(=O)cc(CSc3nnc(-c4ccccc4)n3C)[nH]c2c1,inactive: -1.76%,–
CC(C)(C)c1ccc(-c2nc3n(c(=O)c2C#N)CCS3)cc1,–,"inconclusive: 39.8 µM [inhibitor, partial curve, poor fit]"
Cc1nc2c(sc3nc(N4CCOCC4)c4c(c32)CC(C)(C)OC4)c(-c2ccc(Cl)cc2)c1C(=O)O,–,"inconclusive: 44.7 µM [inhibitor, partial curve]"
CSCCC(NS(=O)(=O)c1cccs1)C(=O)Nc1ccc(C)c(Cl)c1 (stereo not given),inactive: -21.7%,–
Fc1cccc(Nc2ncnc3sccc23)c1,inactive: -24.1%,–
CCc1ccc(-c2cc(C)no2)cc1S(=O)(=O)Nc1ccc(C)cn1,–,"inconclusive: 31.6 µM [inhibitor, partial curve]"

# More compounds follow:

SMILES,"activity change, negative = inhibition",Potency
CNC(=S)N(CCc1c(C)[nH]c2ccc(C)cc12)Cc1ccco1,–,"inconclusive: 3.55 µM [inhibitor, full curve]"
COCc1cc(C)nc(SCc2ccc([N+](=O)[O-])cc2)c1C#N,inactive: -25%,–
Cc1ccccc1OCc1ccc(-c2nc(C#N)c(N3CCN(c4ccccc4)CC3)o2)o1,–,"inconclusive: 0.355 µM [inhibitor, full curve, poor fit]"
CC(C)N(Cc1ccccc1)C(=O)CN1C(=O)COc2ccc(S(=O)(=O)N3CCCCCC3)cc21,–,inactive
CCOC(=O)c1ccc(NC(=O)CSc2nc(SC)ns2)cc1,inactive: -24%,–
COc1ccc(Nc2nc(-c3ccccc3)nc3ccccc23)cc1,–,"inconclusive: 44.7 µM [inhibitor, partial curve, poor fit]"
COC(=O)c1cc(C#N)c(N(C)Cc2ccccc2)nc1C,inactive: -16.3%,–
Cc1cccc(CNC(=O)c2sc3ncnc(N(C)C4CCCCC4)c3c2C)c1,inactive: -13.8%,–
Cn1c(=O)[nH]c(=O)c2c1nc(CN1CCN(c3ccccc3F)CC1)n2CC(N)=O,–,"inconclusive: 44.7 µM [inhibitor, partial curve]"
CNc1oc(-c2ccc(COc3ccc(C)cc3)o2)nc1C#N,–,"inconclusive: 5.62 µM [inhibitor, single point]"
Cc1cc2ccccc2n2c(SCC(=O)Nc3cccc(C(F)(F)F)c3)nnc12,–,"inconclusive: 28.2 µM [inhibitor, partial curve]"
CC(=O)c1ccc(NC(=O)Nc2ccc3c(c2)N(C)C(=O)CS3)cc1,–,"inconclusive: 11.2 µM [inhibitor, partial curve]"
CC[n+]1c(/C=C/c2c[nH]c3ccccc23)ccc2cc(C)ccc21,–,"inconclusive: 31.6 µM [inhibitor, partial curve]"
COc1ccc(C(CC(=O)NCc2ccccc2)C(C)C)cc1 (stereo not given),–,"inconclusive: 39.8 µM [inhibitor, partial curve, poor fit]"
CCOC(=O)N=Nc1c2ccccc2c2nc3no[nH]c3nc12,–,"inconclusive: 17.8 µM [inhibitor, partial curve]"
COc1cccc(CNc2nc3c(-c4cccc(C)c4)nnn3c3ccccc23)c1,–,"inconclusive: 3.98 µM [inhibitor, full curve]"
CCO[C@@H]1OC(C(=O)N2CCN(Cc3ccc4c(c3)OCO4)CC2)=C[C@H](C2CCCCC2)[C@H]1CCCO,inactive: -13.4%,–
Nc1ccc2cc3[nH]c4cc(N)ccc4c3nc2c1,–,"inconclusive: 31.6 µM [inhibitor, partial curve, poor fit]"
CCCCC(=O)NNC(=S)NC(=O)C(c1ccccc1)c1ccccc1,–,"inconclusive: 28.2 µM [inhibitor, partial curve]"
CCCc1cc(C(=O)Nc2ccc(F)c(Cl)c2)no1,–,"inconclusive: 7.94 µM [inhibitor, partial curve, poor fit]"
CCCOc1ccc(Cc2nn3c(=O)/c(=C/c4ccco4)sc3nc2=O)cc1,inactive: -3%,–
Cc1c(-n2cc(C(=O)c3cc(Br)ccc3O)cc(C#N)c2=O)c(=O)n(-c2ccccc2)n1C,–,"inconclusive: 50.1 µM [inhibitor, single point]"

# Copied from the entries so far (two entries):
SMILES,"activity change, negative = inhibition",Potency
Cc1nc2c(sc3nc(N4CCOCC4)c4c(c32)CC(C)(C)OC4)c(-c2ccc(Cl)cc2)c1C(=O)O,–,"inconclusive: 44.7 µM [inhibitor, partial curve]"
CCOC(=O)c1cnc2cc(-c3ccc(C)cc3)nn2c1C,–,"inconclusive: 0.251 µM [inhibitor, full curve, poor fit]"

# Next part

SMILES,"activity change, negative = inhibition",Potency
CC1C(=O)Nc2ccc(S(=O)(=O)NCCc3ccc(Cl)cc3)cc2NC1=O (stereo not given),–,"inconclusive: 8.91 µM [inhibitor, partial curve, poor fit]"
Clc1ccc(Nc2ncnc3c2cnn3-c2ccccc2)cc1,–,"inconclusive: 1.41 µM [inhibitor, full curve, poor fit]"
COC(=O)c1cc(S(=O)(=O)N2CCN(c3ccc(F)cc3)CC2)cn1C,–,"inconclusive: 4.47 µM [inhibitor, partial curve]"
OC1(c2ccc(Cl)cc2)CN(c2ccccc2)C2=[N+]1CCS2 (stereo not given),–,"inconclusive: 5.01 µM [inhibitor, partial curve]"
COc1ccc(CNC(=O)c2cccc(-c3ccc(C)c4ccccc34)n2)cc1,–,"inconclusive: 39.8 µM [inhibitor, partial curve, poor fit]"
CC1(C)CC(O)C(C)(C)N1O (stereo not given),inactive: -6.94%,–
COc1cccc(C2c3c(-c4ccccc4O)n[nH]c3C(=O)N2Cc2cccnc2)c1 (stereo not given),–,"inconclusive: 10 µM [inhibitor, single point]"
CCn1c(C)nc2cc(-c3nc4n(n3)Cc3ccccc3-4)ccc21,–,"inconclusive: 7.08 µM [inhibitor, full curve, poor fit]"
CC1=CC(=O)c2ccccc2C1=O,–,"inconclusive: 28.2 µM [inhibitor, single point] and inconclusive: 35.5 µM [inhibitor, partial curve, poor fit]"
C=Cc1ccc(Cn2c(C(=O)O)c(CNCc3ccccc3)c3ccc(OC)cc32)cc1,–,"inconclusive: 79.4 µM [inhibitor, partial curve, poor fit]"
CCOc1ccccc1C(=O)Nc1nnc(SCC(=O)N2CCCC2)s1,–,"inconclusive: 0.251 µM [inhibitor, full curve, poor fit]"
Cc1ccc2cc(CN(CCN(C)C)C(=S)Nc3ccccc3)c(=O)[nH]c2c1C,inactive: -2.37%,–
COC(=O)c1c(-c2cccs2)csc1NC(=O)c1cc(OC)c(OC)c(OC)c1,–,"inconclusive: 1.58 µM [inhibitor, partial curve, poor fit]"
COc1cc(OC)c(NC(=O)NCc2cccn2Cc2ccccc2)cc1Cl,inactive: -15.5%,–
CC(C)CCNC(=O)c1ccc(Cn2c(SCC(N)=O)nc3ccccc3c2=O)cc1,–,"inconclusive: 0.282 µM [inhibitor, full curve]"
CCN(CC)Cc1c(O)ccc2c1O/C(=C\C=C\c1ccccc1)C2=O,–,active: 31.6 µM
CCOC(=O)c1ccc(NC(=O)CCc2c(C)nc3c(c(C)nn3C(C)(C)C)c2C)cc1,inactive: -22.2%,–
Nc1nonc1-n1nnc(C(=O)N/N=C/c2cccc(Cl)c2)c1CN1CCCC1,–,"inconclusive: 0.891 µM [inhibitor, full curve]"
O=C(c1cccnc1)N1CCN(C(=O)c2cccc(Cl)c2)CC1,–,"inconclusive: 1.12 µM [inhibitor, full curve]"
COc1ccc(S(=O)(=O)NCCc2sc(-c3cccc(C)c3)nc2C)cc1,–,"inconclusive: 2.82 µM [inhibitor, full curve, poor fit]"
CCOc1cc(CNc2cccc3[nH]c(C)nc23)ccc1OC,–,"inconclusive: 39.8 µM [inhibitor, partial curve, poor fit]"
